Reference: publication PMC3924284
No constants are given. Whether binding was seen depends on the method and setting. In cells and extracts the contact can be indirect. Some results given as binding are weak or reduced against the parent protein; the word gives no strength.

Amino acid sequences for entries named in this document (tags omitted).
UniProt P0AE72: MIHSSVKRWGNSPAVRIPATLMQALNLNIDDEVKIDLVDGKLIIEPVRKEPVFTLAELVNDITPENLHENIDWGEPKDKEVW

Molecular target: MazE antitoxin (6x histidine-MazE-3x FLAG, from pBAD24mazE) (E. coli) (UniProt P0AE72)
Assay: pull-down; purified MazE amine-coupled to Affi-Gel 10 beads; supernatant of the MazF-expressing cell lysate incubated with the beads 5 h at 4 °C; washed with coupling buffer (0.05 M sodium bicarbonate, 0.5 M NaCl, pH 8.3); eluted with 0.2 M glycine HCl pH 2.5; only the target purified

E24A MazF (from UniProt P0AE70 1-111) (enzyme)
binding: binds
